The values that follow come from patent publication US20130164299A1.

Protein sequences, listed by entry. Tags and fused reporters are not part of them. Lines headed by an entry give the natural chain unless they say otherwise; changes in a name come on top.
UniProt Q9UHP7: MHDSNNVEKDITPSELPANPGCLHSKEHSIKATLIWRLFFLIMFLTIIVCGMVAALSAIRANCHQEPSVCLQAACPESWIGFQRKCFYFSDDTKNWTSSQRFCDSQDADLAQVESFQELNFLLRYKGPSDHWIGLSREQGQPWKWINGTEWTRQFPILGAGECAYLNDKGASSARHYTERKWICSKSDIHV

Assay [1] concerns the target LLT1-Fc fusion protein (human) (UniProt Q9UHP7). The assay can be described thus: blocking assay by flow cytometry: binding of LLT1-Fc multimers to CD161 on 293T-CD161 cells in the presence of the antibody.
For assay [2] the target is unchanged. The assay can be described thus: ELISA, coated LLT1-Fc. (ELISA stands for enzyme-linked immunosorbent assay.)

These are yes or no findings as the source states them, for the method shown. Some results given as binding are weak or reduced against the parent protein; the word gives no strength.

B1: anti-LLT14F (antibody, mouse IgG1, V domains shown)
VH: EVQLVESGGGLVQPGGSLKLSCAASGFTVSSYGMSWVRQIPDKRLELVATINSNGGRTFYPDSVKGRFTISRDNAQNTLYLQMSSLKSEDTAMYYCARDGGYWAHFDYWGQGTTLTVSS
VL: DVLMTQTPLSLPVSLGDQASISCRSSQSIVHSNGNTYLEWYLQKPGQSPKLLIYKVSNRFSGVPDRFSGSGSGTDFTLKISRVEAEDLGVYYCFQGSHVPWTFGGGTKLEIKR
As to B1, the binding entry in assay [1] and in assay [2] was “binds” each time.
